Positions count from the first letter of the chain named. Names may count otherwise. These are yes or no findings as the source states them, for the method shown. Some results given as binding are weak or reduced against the parent protein; the word gives no strength. Blank lines part the entries; values can stand above or below the binder they belong to.
Target: T1, ELONGATED HYPOCOTYL5 (HY5) (Arabidopsis thaliana) (UniProt O24646)
T1 sequence: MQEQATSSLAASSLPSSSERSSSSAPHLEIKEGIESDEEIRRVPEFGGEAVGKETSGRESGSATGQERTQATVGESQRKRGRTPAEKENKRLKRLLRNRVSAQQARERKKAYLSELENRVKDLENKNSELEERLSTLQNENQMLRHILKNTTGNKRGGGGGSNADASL
Assay: two-hybrid

binding: binds
B1: BBX21^P314L (protein, UniProt Q9LQZ7 1-331)
chain: MKIRCDVCDKEEASVFCTADEASLCGGCDHQVHHANKLASKHLRFSLLYPSSSNTSSPLCDICQDKKALLFCQQDRAILCKDCDSSIHAANEHTKKHDRFLLTGVKLSATSSVYKPTSKSSSSSSSNQDFSVPGSSISNPPPLKKPLSAPPQSNKIQPFSKINGGDASVNQWGSTSTISEYLMDTLPGWHVEDFLDSSLPTYGFSKSGDDDGVLPYMEPEDDNNTKRNNNNNNNNNNNTVSLPSKNLGIWVPQIPQTLPSSYPNQYFSQDNNIQFGMYNKETSPEVVSFAPIQNMKQQGQNNKRWYDDGGFTVLQITPPPLSSNKKFRSFW

binding: binds
B2: BBX21 (protein, UniProt Q9LQZ7 1-331)
chain: B1 chain with L314P
